Source: publication PMC4257004
These are yes or no findings as the source states them, for the method shown. In cells and extracts the contact can be indirect. A result given as binding can be weak or reduced; the word gives no strength.

Protein sequences, listed by entry. Tags and fused reporters are not part of them.
UniProt Q9VDJ9: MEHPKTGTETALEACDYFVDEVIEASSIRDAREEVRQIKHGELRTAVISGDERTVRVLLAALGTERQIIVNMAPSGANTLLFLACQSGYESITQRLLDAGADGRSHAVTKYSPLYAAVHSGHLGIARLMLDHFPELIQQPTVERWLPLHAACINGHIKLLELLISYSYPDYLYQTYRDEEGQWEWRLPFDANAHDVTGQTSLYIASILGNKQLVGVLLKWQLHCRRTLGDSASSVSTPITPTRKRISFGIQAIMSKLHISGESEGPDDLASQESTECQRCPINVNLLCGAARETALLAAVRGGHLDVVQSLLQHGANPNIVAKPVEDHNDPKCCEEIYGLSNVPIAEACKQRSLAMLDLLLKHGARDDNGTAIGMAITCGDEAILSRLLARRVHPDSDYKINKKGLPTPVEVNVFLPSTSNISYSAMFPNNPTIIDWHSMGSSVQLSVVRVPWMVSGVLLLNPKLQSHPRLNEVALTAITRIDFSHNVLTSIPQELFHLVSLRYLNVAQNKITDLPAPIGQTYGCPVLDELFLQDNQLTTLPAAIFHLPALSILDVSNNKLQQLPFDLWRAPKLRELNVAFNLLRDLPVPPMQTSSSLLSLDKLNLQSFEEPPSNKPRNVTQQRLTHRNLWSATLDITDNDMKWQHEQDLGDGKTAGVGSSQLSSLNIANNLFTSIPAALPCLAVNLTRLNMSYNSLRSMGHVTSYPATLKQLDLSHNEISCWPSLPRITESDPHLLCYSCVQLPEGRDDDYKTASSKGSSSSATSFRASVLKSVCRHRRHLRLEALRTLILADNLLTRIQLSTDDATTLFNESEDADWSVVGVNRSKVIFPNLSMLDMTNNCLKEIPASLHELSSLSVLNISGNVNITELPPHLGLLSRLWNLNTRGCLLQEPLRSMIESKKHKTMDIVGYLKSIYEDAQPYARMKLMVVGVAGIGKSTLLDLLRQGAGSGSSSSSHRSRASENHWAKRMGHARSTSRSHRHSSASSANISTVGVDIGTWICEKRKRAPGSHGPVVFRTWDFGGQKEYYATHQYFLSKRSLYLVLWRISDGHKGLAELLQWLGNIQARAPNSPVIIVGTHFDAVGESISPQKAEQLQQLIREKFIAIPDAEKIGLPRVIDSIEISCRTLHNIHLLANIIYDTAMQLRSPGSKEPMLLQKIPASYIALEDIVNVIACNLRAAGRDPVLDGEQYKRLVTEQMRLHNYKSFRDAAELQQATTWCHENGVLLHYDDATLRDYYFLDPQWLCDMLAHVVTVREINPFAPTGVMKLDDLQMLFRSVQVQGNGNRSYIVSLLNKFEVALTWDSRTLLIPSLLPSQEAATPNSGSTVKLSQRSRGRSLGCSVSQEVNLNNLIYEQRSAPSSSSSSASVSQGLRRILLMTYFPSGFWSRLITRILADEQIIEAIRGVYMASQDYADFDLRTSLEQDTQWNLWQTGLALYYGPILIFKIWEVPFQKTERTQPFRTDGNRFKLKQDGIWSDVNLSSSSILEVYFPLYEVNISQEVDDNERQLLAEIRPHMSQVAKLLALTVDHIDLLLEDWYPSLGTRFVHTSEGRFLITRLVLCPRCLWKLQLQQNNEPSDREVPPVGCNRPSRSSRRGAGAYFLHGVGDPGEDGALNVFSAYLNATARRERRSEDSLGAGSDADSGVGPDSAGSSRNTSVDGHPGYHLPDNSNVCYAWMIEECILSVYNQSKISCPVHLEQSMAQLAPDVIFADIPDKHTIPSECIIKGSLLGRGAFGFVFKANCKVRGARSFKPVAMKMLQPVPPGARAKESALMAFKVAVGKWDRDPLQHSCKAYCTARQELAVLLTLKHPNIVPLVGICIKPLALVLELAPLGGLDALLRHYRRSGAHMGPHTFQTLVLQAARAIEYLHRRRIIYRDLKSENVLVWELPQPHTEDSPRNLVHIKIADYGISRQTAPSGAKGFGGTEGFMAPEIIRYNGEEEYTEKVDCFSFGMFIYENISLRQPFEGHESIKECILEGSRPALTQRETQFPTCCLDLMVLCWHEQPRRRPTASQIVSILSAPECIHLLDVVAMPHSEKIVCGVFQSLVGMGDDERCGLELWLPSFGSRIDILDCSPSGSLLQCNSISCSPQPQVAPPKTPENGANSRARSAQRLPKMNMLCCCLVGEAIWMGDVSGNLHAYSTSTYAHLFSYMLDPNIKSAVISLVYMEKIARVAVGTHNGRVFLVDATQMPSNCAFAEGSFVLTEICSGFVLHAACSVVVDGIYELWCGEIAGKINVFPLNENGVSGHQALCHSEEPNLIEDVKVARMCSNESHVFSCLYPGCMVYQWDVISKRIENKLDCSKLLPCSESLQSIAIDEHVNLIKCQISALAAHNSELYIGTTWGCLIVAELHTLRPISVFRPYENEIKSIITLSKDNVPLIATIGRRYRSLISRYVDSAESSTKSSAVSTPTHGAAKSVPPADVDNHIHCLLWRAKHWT

Target: Rab9-YFP (Drosophila) (UniProt Q9VIW6)
Experiment: co-IP; lysates of transiently transfected Drosophila S2 cells in RIPA buffer with protease inhibitors; Dynabeads with rabbit anti-GFP or mouse anti-Myc; western blot with anti-Myc and anti-GFP

Drosophila Lrrk, 9myc-tagged (pMT-lrrk-9myc) (from UniProt Q9VDJ9 1-2445)
binding: binds
